Record: PubChem BioAssay AID504744 (Drosophila RNAi Screening Center, 2011)
Assay: 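Find genes whose loss alters insulin-driven dAkt phosphorylation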 (primary screen). System: Drosophila Kc167 cells. Reagents: long dsRNA against Drosophila genes, 250 ng dsRNA per well of a 384-well plate. Time to read-out: 3 days of knock-down, then overnight serum-free starvation before stimulation. Challenge: bovine insulin at 387 nM for 10 minutes after 12 h without serum. Measurement: 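Per-well phospho-dAkt level from an in-cell fluorescent antibody stain, divided by a DNA-dye signal; log2 residuals turned into z-scores that take cell number into account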. Hit rule: 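Hit in the insulin screen when the two-replicate mean z-score is more extreme than plus or minus 2.5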.
In all, the deposit lists about 23,000 reagents; shown is a random part of those that have a named target and a result. Over the whole deposit, 98 (0.43%) are marked active. 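Only hit calls are given; the phospho-dAkt signals, z-scores and hit direction were not deposited.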 A plus sign joins genes that one reagent is predicted to hit.

target	amplicon	Call
VhaAC39-1	DRSC18242	inactive
gukh	DRSC14768	inactive
gukh	DRSC15806	inactive
gukh	DRSC15944	inactive
CG10943	DRSC09805	inactive
Rim	DRSC16224	inactive
Rim	DRSC16225	inactive
Rim	DRSC16226	inactive
Rim	DRSC16227	inactive
Rim	DRSC22406	inactive
CG32054	DRSC10684	inactive
TwdlX	DRSC19151	inactive
CG3515	DRSC00609	inactive
Rh4 + sina	DRSC11396	inactive
CG13204	DRSC06328	inactive
CG14111	DRSC10114	inactive
eyg	DRSC11344	inactive
Sfmbt	DRSC02552	inactive
Patr-1	DRSC14159	inactive
CG33158	DRSC09708	inactive
CG33158	DRSC09709	inactive
CG33158	DRSC10438	inactive
Tep4	DRSC03453	inactive
CG31089	DRSC15934	inactive
CG12923	DRSC06237	inactive
Or23a	DRSC00767	inactive
CG4646	DRSC06876	inactive
CG15506	DRSC15047	inactive
CG46301	DRSC01916	inactive
CG42245 + MEP-1	DRSC07993	inactive
CG42245 + MEP-1	DRSC08274	inactive
CG42245 + MEP-1	DRSC21460	inactive
CG34176	DRSC00435	inactive
Cyp6d4	DRSC16633	inactive
CG3448	DRSC10368	inactive
Bre1	DRSC09742	inactive
wts	DRSC17096	inactive
CaBP1	DRSC01984	inactive
CG42650	DRSC12462	inactive
CG5921	DRSC17431	inactive
CG5921	DRSC18390	inactive
CG5521	DRSC15828	inactive
cona	DRSC16281	inactive
Ir94e	DRSC15229	inactive
CG9500	DRSC03237	inactive
Fum3	DRSC10592	inactive
CG18745	DRSC15382	inactive
CG34229	DRSC06316	inactive
Ugt35A1	DRSC16892	inactive
IntS12	DRSC15818	inactive
CG9692	DRSC11091	inactive
CG13064	DRSC09947	inactive
mth	DRSC08725	inactive
gammaCOP	DRSC16955	inactive
CG34221	DRSC06150	inactive
Hmx	DRSC15884	inactive
Hmx	DRSC16706	inactive
Hmx	DRSC22799	inactive
Sps2	DRSC03441	inactive
CG4553	DRSC15595	inactive
FeCH	DRSC16948	inactive
CG34268	DRSC07874	inactive
CG32110	DRSC09220	inactive
Cyp4d20	DRSC08654	inactive
CG14275	DRSC02379	inactive
CG9143	DRSC07338	inactive
EMC2B	DRSC15506	inactive
Eglp3	DRSC04293	inactive
CG42271	DRSC19809	inactive
CG42271	DRSC22894	inactive
CG15219	DRSC03715	inactive
CG34256	DRSC09582	inactive
CG5541	DRSC19946	inactive
Sytalpha	DRSC02869	inactive
CG4815	DRSC15653	inactive
RpL37-1	DRSC20149	inactive
RpL37-1	DRSC21646	inactive
loj	DRSC09791	inactive
Mos	DRSC07258	inactive
CG9921	DRSC20220	inactive
lsn	DRSC16081	inactive
CG8738	DRSC07256	inactive
Rad51D	DRSC06840	inactive
SP	DRSC09664	inactive
Tip60	DRSC18661	inactive
ND-B17.2	DRSC00577	inactive
stumps	DRSC13045	inactive
stumps	DRSC15332	inactive
stumps	DRSC17073	inactive
Vps15	DRSC16553	inactive
CG7606	DRSC13246	inactive
CG7606	DRSC16268	inactive
dap	DRSC07601	inactive
CG32214	DRSC09613	inactive
sha	DRSC06331	inactive
CG7970	DRSC08605	inactive
CG13806	DRSC08341	inactive
CG15358	DRSC00388	inactive
Tep5Psi	DRSC02183	inactive
Tep5Psi	DRSC02184	inactive
Cals	DRSC17196	inactive
Cals	DRSC21661	inactive
gem	DRSC06093	inactive
gem	DRSC06847	inactive
r2d2	DRSC03014	inactive
Cyp4ac1	DRSC03302	inactive
Cyp310a1	DRSC03301	inactive
